Assay results as given in the supplement of paper PMC3334620.
Whole data set: some 33,000 sequences, median “E-score (-0.5 to 0.5)” near -0.016, cut for the highest 2% near 0.3. Some of the results follow.

biological target: T1, Yer184c (UniProt P39961); assay: PBM E-score (8-mer binding enrichment) (E-score (-0.5 to 0.5)); higher = stronger / more preferred TF binding; settings: protein concentration: 100 nM; construct: GST-full length
T1 sequence: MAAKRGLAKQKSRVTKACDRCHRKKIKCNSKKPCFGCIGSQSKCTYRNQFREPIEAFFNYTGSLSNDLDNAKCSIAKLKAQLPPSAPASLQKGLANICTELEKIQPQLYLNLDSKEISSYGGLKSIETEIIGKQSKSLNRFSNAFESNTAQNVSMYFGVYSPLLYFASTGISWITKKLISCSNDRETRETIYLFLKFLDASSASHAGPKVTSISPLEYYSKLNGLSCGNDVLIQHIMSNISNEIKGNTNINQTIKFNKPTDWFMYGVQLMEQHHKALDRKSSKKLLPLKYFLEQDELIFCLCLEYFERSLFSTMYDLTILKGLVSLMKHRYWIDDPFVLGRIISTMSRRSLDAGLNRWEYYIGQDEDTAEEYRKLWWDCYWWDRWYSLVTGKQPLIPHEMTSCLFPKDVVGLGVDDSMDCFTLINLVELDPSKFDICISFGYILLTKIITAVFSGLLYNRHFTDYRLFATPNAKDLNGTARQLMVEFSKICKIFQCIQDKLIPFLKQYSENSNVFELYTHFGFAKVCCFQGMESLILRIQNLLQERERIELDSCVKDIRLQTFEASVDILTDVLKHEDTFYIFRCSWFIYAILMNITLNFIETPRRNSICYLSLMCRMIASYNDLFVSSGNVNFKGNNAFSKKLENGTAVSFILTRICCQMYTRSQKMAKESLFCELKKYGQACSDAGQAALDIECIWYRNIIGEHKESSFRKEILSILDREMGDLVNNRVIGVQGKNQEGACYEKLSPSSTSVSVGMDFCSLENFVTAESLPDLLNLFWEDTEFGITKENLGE
Procedure, shortened: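 Each ungapped eight-base word and its reverse complement, pooled, received an E-score from the Universal PBM Analysis Suite. Underlying scans, normalised with masliner, recorded fluorescent anti-GST bound to GST-tagged yeast transcription factors. These were applied at about 100-200 nM to universal all-10-mer Agilent arrays double-stranded by primer extension.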

Point of comparison: AAATCATC, “PBM E-score” value -0.0672. Against it:
- GGCTCCCA — lower, -0.124
- AAACAACG — higher, 0.0792
- AGGCCTTG — lower, -0.258
- GAGGTCGA — lower, -0.158
- GTGGATAA — higher, 0.0514
- AGAAGCCT — higher, 0.00531
- CGGTAGAG — higher, -0.0325
- CGGCCCGC — higher, 0.192
- AGGCTGGC — lower, -0.313
- CGCCAACC — higher, -0.0638
- GGTAGAAA — higher, 0.0816
- GCATCTCC — lower, -0.155
- ACACTCTC — higher, 0.0613
- AGCGAAAC — higher, 0.215
- CCGCCACA — lower, -0.289
- CTTTTTCC — higher, 0.198
- AGATATAT — higher, 0.26
- AACAACCT — lower, -0.0961
- AGGGTATC — higher, -0.0357
- AACACGTC — lower, -0.0885
- AATACTTG — higher, 0.034
- CACGCAGC — lower, -0.152
- ATAGATCG — higher, 0.0323
- AGTACGTC — lower, -0.104
- CAAGTTAG — higher, 0.0439
- CTCTAAAA — higher, 0.0513
- GCAGCTAC — higher, 0.108
- AAGATTTA — higher, 0.101
- CCCATGCG — lower, -0.259
- TATATCAA — higher, 0.248
- CGCCTAAA — higher, -0.0442
- AGGTCAGC — higher, 0.00649
- AGTGACCC — lower, -0.292
- ATTGATCA — higher, 0.103
- AATATCGC — higher, 0.0882
- CGCGATTA — higher, 0.0355
- CCCAAACA — higher, 0.0426
- GAGTTTCA — higher, 0.00333
- GCGTGTAC — lower, -0.179
- CCGTTGTA — higher, 0.211
- CCACGCGC — lower, -0.244
- GATTTCGC — higher, 0.312
- ATAAGCTC — higher, 0.059
- ACACGCTG — lower, -0.125
- CGAAACCC — higher, 0.049
- CATAGTTA — higher, 0.0565
- ACTTCGCT — higher, -0.0272
- AGCGTGGC — higher, -0.0559
- CTGTCGGC — higher, 0.0943
- GATTTGAC — lower, -0.0725
- CCAGCTGC — lower, -0.101
- AATCTATG — higher, 0.0937
- GAGGACAA — lower, -0.118
- ATAGCCCA — higher, -0.0509
- CCCTGACA — lower, -0.18
- CCCCGCGA — higher, -0.0621
- CGGAGGTC — higher, 0.173
- TACAACGA — higher, 0.0907
- CAATTTGA — higher, 0.0591
- CCTTACAA — higher, -0.037
- AGTAGTAG — lower, -0.117
- AATATACT — higher, 0.047
- ACTTGCCC — lower, -0.154
- GGGACCAA — higher, -0.0466
- GCTCAGCC — lower, -0.157
- CAAACTAA — higher, 0.229
- AAGGATTC — lower, -0.165
- CGATCCCG — higher, 0.102
- TATGGTGA — lower, -0.114
- GAGGGGCC — lower, -0.23
- CTCCGCCA — higher, -0.0578
- GACCATAC — higher, 0.029
- GGCGACCC — lower, -0.259
- CGTATTGC — higher, 0.0559
- ACGTTGGC — lower, -0.185
- GGGGTTAC — lower, -0.282
- CTTGGACC — lower, -0.236
- AGCAGAAC — higher, -0.0159
- CGGGAATA — higher, 0.3
- ACCTTCCC — lower, -0.14
- CTAGCACC — higher, -0.0123
- AGCACTTG — lower, -0.338
- GACTGGTA — higher, 0.00991
- AAACGCAG — higher, 0.131
- AAGTTCAG — higher, 0.0998
- CGCTGACC — higher, 0.0709
- AGTTAAGA — higher, 0.015
- GCGCGCAA — higher, 0.116
- ACAAGGAA — higher, 0.156
- CTACTATA — higher, 0.157
- ACAATCCC — higher, 0.116
- AAGTTGGT — higher, 0.0483
- CAAGTGTA — lower, -0.162
- CTATGTGC — lower, -0.119
- CGGGCGAC — lower, -0.127
- AGTCGTGA — lower, -0.192
- CCGGTCTC — higher, 0.0994
- AGCATGCG — higher, 0.0983
- ACTAGAGA — lower, -0.0738
- AGTACTCA — lower, -0.0857
- GTACCGGA — higher, 0.285
- GGGGGTTA — lower, -0.364
- CCGGGATA — higher, 0.315
- CGCCGTCC — higher, 0.13
- AATCATGT — higher, -0.06
- GGTCCTCA — higher, -0.014
- AATGGCAG — lower, -0.124
- ACATAACA — higher, 0.149
- AGGTGACA — higher, -0.049
- ATATTTGA — higher, 0.0537
- ATGCCTTA — lower, -0.206
- AGTCACCA — lower, -0.311
- GAGTTTGC — higher, 0.0509
- CACTTAAG — higher, 0.217
- CTAAGCTC — lower, -0.107
- ATGGTGCG — lower, -0.117
- ACGGCCCT — lower, -0.124
- GCCCATGA — lower, -0.125
- GCACGCCC — higher, 0.0562
- TCTGGACA — higher, -0.0367
- ACTGTCTC — higher, -0.0441
- ACTTAAGT — higher, 0.0375
- ATTGTGCG — higher, -0.0503
- ACAGAGCG — higher, 0.00106
- AGGATTCG — higher, 0.0476
- AGCTTCGA — higher, -0.0494
- CATGAGTA — lower, -0.122
- CCCGTCTA — higher, -0.0617
- GAGGGGAC — lower, -0.111
- CGATTAAC — higher, 0.111
- CATTACCG — higher, 0.13
- ACAGACCG — higher, 0.0789
- ACACATCA — lower, -0.0845
- TAGGCGCA — lower, -0.117
- CCATGGCA — lower, -0.199
- ACCCGGGA — higher, 0.367
- GCGGAGTA — higher, 0.0105
- CACAATCG — higher, 0.059
- GAAACAGC — higher, 0.049
- CCGCTAAC — higher, 0.0892
- ATCACAGC — higher, 0.0527
- AATGGGCC — lower, -0.107
- CCCTGATC — lower, -0.171
- ACCGGTCG — higher, 0.156
- CTGTCATA — lower, -0.192
- CCCATCAC — lower, -0.228
- CGAGAAGC — higher, -0.00453
- CCTGCTAC — higher, -0.0227
- ACAGAACA — higher, 0.0718
- ACTCCGCA — lower, -0.084
- CTATCTTA — higher, 0.0105
- GCTAAATA — higher, 0.0302
- CCGGGTGC — higher, 0.179
- CAAATGTA — higher, 0.0845
- CTCAACAG — higher, -0.0543
- AGGTTACT — higher, 0.0631
- CAATATCA — higher, 0.0165
- GTCAGAAC — higher, -0.053
- CAGCGGAA — higher, 0.116
- GGAGTTAC — higher, 0.0326
- CCGACCCG — higher, 0.122
- GACGATTA — higher, 0.0324
- GAAGACGC — higher, -0.0156
- CACCCCGG — higher, -0.00956
- AATCACAC — higher, 0.145
- GCCATAGC — lower, -0.138
- CCTGTAAC — higher, -0.0354
- AGACTCTG — lower, -0.113
- AAAAATGT — higher, 0.0248
- CCCAACAC — lower, -0.259
- ACTATAAT — higher, 0.0807
